Assay results published in PMC10899660, “Global fungal-host interactome mapping identifies host targets of candidalysin” (Nature Communications, 2024).
Results are given in words; binding and its absence hold for the method and conditions named. Some binding calls cover weakened binding; strength is not graded here.

Chains of the proteins cited; added tags and fusions are not shown. Residues count along the entry.
Ece1-II peptide, Gal4 activation domain fusion (Q07730, residues 32-61): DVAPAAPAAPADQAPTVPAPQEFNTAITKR
Ece1-IV, synthetic peptide (Q07730, residues 94-126): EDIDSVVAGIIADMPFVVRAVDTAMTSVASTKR
Ece1-V, synthetic peptide (Q07730, residues 127-160): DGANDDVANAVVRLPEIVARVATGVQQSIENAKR
Ece1-VI peptide, Gal4 activation domain fusion (Q07730, residues 161-194): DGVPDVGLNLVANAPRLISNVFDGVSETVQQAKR
Ece1-VII peptide, Gal4 activation domain fusion (Q07730, residues 195-228): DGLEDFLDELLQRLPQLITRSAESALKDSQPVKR
Ece1-VIII peptide, Gal4 activation domain fusion (Q07730, residues 229-271): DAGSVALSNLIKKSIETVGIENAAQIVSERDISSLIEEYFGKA
UniProt P51946: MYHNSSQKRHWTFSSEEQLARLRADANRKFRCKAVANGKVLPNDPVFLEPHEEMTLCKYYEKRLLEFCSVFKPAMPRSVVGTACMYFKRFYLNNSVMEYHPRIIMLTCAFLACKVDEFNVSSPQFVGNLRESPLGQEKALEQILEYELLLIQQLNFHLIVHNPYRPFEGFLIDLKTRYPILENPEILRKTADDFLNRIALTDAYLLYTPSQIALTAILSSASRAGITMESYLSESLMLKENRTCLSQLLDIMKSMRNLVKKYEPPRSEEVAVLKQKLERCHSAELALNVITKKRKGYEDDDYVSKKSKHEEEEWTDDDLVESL
UniProt Q8N149: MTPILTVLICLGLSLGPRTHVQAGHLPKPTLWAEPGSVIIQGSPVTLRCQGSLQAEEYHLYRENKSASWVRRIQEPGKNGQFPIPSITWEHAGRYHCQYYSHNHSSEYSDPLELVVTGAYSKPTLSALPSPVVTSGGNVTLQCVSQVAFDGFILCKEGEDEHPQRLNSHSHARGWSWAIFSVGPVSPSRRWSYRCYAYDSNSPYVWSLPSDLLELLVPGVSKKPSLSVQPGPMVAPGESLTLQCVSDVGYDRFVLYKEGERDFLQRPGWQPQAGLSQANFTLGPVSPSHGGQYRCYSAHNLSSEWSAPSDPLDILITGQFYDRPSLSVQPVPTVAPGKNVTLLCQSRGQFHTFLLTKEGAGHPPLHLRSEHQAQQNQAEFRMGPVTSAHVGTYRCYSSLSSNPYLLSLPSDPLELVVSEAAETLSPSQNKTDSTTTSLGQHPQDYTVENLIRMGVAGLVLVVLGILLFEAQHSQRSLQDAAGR
UniProt P67775: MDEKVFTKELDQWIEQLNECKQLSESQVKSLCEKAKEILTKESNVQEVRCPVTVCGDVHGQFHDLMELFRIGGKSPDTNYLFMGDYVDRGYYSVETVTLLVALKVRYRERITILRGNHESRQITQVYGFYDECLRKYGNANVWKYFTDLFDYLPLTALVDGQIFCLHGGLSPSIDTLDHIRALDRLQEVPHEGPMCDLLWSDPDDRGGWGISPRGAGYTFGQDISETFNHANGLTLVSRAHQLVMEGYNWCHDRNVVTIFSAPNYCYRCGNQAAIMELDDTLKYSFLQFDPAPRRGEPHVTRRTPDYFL
UniProt Q8NHL6: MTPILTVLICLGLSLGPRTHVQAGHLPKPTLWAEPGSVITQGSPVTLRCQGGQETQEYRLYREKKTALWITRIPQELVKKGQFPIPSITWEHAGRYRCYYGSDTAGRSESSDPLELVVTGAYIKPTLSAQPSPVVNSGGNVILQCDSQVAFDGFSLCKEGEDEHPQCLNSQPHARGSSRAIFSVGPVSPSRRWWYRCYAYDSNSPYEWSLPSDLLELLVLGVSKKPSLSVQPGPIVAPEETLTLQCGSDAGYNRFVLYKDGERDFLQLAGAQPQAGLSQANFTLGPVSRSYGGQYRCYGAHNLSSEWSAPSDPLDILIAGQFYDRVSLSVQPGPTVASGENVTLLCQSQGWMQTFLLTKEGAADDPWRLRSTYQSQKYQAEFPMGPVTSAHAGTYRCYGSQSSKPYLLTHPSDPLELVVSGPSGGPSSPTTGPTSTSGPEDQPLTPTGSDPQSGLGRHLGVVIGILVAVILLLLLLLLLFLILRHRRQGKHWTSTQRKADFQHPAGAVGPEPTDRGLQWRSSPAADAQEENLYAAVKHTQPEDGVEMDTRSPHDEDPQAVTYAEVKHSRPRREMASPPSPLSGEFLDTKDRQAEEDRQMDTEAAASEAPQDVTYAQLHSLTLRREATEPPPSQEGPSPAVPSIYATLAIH
UniProt O75019: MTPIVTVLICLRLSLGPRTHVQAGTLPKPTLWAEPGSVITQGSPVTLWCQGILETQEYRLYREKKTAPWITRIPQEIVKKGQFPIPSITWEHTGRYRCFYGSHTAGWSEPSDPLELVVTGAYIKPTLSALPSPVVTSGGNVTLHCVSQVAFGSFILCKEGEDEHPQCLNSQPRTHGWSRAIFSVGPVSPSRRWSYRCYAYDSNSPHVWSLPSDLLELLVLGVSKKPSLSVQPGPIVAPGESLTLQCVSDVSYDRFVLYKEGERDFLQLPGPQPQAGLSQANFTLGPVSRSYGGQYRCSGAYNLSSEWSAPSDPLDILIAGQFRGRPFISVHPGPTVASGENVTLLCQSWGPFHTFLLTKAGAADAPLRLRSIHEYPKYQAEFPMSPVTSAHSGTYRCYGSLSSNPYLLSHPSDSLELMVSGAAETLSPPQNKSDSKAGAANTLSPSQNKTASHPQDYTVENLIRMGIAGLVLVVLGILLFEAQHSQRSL
UniProt Q96AP0: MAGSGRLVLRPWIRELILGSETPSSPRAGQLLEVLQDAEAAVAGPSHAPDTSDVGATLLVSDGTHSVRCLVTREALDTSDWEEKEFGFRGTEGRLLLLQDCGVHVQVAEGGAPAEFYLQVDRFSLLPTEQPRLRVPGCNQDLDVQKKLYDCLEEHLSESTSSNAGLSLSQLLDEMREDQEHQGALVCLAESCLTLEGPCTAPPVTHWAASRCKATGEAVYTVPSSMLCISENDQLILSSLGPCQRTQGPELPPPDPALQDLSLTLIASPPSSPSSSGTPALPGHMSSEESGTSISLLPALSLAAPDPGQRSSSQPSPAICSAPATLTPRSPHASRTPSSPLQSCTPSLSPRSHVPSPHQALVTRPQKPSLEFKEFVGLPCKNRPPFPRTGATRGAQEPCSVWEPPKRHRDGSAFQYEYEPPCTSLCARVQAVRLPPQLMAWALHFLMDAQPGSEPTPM
UniProt Q8NHJ6: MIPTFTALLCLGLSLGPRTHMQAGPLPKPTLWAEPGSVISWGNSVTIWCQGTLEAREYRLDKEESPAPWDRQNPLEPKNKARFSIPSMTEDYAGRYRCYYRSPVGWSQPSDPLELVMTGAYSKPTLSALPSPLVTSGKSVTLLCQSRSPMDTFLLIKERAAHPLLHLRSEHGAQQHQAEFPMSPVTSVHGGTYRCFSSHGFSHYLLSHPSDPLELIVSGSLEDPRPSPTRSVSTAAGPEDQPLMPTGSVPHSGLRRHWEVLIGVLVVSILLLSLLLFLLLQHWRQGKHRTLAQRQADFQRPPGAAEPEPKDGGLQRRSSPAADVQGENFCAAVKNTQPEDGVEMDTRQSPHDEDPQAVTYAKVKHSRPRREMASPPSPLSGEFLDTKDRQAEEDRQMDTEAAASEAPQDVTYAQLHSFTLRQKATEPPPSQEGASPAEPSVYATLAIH
UniProt Q8N6C8: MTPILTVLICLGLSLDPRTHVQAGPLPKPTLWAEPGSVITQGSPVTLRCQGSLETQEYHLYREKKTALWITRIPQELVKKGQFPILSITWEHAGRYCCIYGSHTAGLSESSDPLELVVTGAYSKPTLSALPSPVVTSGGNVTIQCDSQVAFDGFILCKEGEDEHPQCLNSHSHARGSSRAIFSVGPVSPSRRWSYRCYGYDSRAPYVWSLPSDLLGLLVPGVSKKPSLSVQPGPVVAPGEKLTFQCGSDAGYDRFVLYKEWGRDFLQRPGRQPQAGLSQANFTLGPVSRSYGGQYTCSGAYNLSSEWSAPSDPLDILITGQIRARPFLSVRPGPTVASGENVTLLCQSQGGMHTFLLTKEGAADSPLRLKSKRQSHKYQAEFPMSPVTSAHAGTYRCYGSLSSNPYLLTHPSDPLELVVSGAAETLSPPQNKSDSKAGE
UniProt P61586: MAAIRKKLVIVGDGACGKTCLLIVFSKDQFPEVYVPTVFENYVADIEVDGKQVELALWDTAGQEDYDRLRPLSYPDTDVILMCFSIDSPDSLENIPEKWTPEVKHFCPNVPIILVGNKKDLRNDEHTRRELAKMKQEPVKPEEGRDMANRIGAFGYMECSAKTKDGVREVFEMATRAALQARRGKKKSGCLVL
UniProt Q8N423: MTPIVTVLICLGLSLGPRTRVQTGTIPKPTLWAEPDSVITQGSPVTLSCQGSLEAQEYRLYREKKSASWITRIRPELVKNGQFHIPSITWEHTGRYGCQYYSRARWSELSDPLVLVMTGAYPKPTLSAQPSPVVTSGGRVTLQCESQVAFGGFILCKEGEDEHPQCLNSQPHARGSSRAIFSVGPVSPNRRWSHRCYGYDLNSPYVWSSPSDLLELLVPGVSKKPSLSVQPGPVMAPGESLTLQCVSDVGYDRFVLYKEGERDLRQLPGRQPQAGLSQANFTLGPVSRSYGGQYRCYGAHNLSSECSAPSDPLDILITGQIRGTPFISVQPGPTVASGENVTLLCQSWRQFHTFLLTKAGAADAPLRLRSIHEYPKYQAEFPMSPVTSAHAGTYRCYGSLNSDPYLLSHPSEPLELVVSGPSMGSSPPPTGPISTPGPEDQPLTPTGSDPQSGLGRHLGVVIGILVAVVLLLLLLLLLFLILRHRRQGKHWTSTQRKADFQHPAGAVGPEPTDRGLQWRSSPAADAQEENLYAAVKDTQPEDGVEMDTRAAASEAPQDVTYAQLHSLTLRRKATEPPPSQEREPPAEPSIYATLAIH
UniProt O75023: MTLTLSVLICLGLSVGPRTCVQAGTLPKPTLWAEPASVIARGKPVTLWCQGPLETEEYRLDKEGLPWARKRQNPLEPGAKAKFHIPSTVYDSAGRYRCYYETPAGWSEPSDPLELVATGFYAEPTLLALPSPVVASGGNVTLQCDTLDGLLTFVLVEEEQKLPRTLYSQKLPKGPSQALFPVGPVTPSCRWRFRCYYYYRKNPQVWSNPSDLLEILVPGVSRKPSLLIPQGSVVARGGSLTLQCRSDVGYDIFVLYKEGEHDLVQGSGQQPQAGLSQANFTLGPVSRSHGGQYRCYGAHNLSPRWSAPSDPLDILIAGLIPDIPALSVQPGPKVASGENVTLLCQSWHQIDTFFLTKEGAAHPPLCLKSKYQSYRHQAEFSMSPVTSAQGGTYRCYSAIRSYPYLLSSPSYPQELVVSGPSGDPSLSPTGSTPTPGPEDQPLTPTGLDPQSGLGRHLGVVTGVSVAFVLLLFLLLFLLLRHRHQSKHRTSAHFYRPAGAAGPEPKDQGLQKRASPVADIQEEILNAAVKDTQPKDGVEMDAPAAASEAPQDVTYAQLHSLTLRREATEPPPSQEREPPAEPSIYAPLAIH
UniProt O75022: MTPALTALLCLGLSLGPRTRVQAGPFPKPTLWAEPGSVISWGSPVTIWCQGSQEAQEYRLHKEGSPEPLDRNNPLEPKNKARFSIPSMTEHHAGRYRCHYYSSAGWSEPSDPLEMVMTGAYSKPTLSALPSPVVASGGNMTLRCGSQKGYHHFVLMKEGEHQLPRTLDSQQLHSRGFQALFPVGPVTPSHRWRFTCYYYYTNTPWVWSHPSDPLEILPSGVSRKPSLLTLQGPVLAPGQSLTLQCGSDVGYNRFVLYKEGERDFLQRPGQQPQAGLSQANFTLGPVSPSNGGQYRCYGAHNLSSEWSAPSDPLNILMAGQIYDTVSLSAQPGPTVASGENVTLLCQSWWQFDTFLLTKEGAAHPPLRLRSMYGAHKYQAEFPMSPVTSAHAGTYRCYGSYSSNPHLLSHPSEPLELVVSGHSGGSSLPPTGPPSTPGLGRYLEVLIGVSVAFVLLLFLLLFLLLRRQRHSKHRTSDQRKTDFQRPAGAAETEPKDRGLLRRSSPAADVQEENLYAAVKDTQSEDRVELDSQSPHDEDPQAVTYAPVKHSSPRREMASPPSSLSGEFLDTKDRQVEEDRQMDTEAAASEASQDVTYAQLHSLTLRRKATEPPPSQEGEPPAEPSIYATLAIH

Assays:
[1] = molecular target: Ece1-V peptide, Gal4 activation domain fusion (Candida albicans) (UniProt Q07730); assay: two-hybrid; HT-eY2H screen: Ece1 peptides as Gal4 activation domain fusions (AD-Y, called bait, yeast Y8930), human ORFeome clones (n = 13,761) as DB-X fusions (called prey, yeast Y8800); mated and spotted on SC-Leu-Trp, SC-Leu-Trp-His and SC-Leu-His+CHX; positive = activation of GAL1::HIS3 in a CHX-sensitive manner; clones confirmed by Sanger sequencing
[2] = molecular target: Ece1-II peptide, Gal4 activation domain fusion (Candida albicans) (UniProt Q07730); assay: as above
[3] = molecular target: Ece1-IV peptide, Gal4 activation domain fusion (Candida albicans) (UniProt Q07730); assay: as above
[4] = molecular target: Ece1-VII peptide, Gal4 activation domain fusion (Candida albicans) (UniProt Q07730); assay: as above
[5] = molecular target: Ece1-VIII peptide, Gal4 activation domain fusion (Candida albicans) (UniProt Q07730); assay: as above
[6] = molecular target: Ece1-VI peptide, Gal4 activation domain fusion (Candida albicans) (UniProt Q07730); assay: as above
[7] = molecular target: Recombinant Cyclin H (CCNH) protein with a C-HIS tag (human) (UniProt P51946); assay: SPR; Biacore 8K, PBST running buffer, other conditions as for candidalysin (CCNH amine-coupled on a CM5 chip, 25 °C, 30 μL/min); Ece1-II, Ece1-IV, Ece1-V or human cathelicidin as analyte; both purified

Question: Which results are given for “LILRA2, DB fusion (human ORFeome clone) (from UniProt Q8N149 1-483)”?
Answer: binding [1]: binds; binding [2]: binds

Question: “PPP2CA, DB fusion (human ORFeome clone) (from UniProt P67775 1-309)” was tested. Which binding [1] did it give?
Answer: binds

Question: And the binding [2]?
Answer: binds

Question: And the binding [3]?
Answer: binds

Question: Which results are given for “LILRB1, DB fusion (human ORFeome clone) (from UniProt Q8NHL6 1-650)”?
Answer: binding [1]: binds; binding [2]: binds

Question: How did the binding [1] turn out when “LILRA1, DB fusion (human ORFeome clone) (from UniProt O75019 1-489)” was run?
Answer: binds

Question: And the binding [2]?
Answer: binds

Question: How did the binding [4] turn out when “ACD, DB fusion (human ORFeome clone) (from UniProt Q96AP0 1-458)” was run?
Answer: binds

Question: What about the binding [1] of the same substance?
Answer: binds

Question: What about the binding [2] of the same substance?
Answer: binds

Question: And the binding [5]?
Answer: no binding

Question: What about the binding [6] of the same substance?
Answer: no binding

Question: And the binding [3]?
Answer: binds

Question: “LILRB4, DB fusion (human ORFeome clone) (from UniProt Q8NHJ6 1-448)” was tested. Which binding [1] did it give?
Answer: binds

Question: What about the binding [2] of the same substance?
Answer: binds

Question: “Ece1-IV, synthetic peptide (from UniProt Q07730 94-126)” was tested. Which binding [7] did it give?
Answer: binds

Question: With “LILRA3, DB fusion (human ORFeome clone) (from UniProt Q8N6C8 1-439)” as the substance, how does the binding [1] read?
Answer: binds

Question: What about the binding [2] of the same substance?
Answer: binds

Question: “Ece1-II, synthetic peptide (from UniProt Q07730 32-61)” was tested. Which binding [7] did it give?
Answer: binds

Question: With “RHOA, DB fusion (human ORFeome clone) (from UniProt P61586 1-193)” as the substance, how does the binding [2] read?
Answer: binds

Question: What about the binding [5] of the same substance?
Answer: binds

Question: And the binding [6]?
Answer: binds

Question: How did the binding [1] turn out when “LILRB2, DB fusion (human ORFeome clone) (from UniProt Q8N423 1-597)” was run?
Answer: binds

Question: And the binding [2]?
Answer: binds

Question: What does the source list for “LILRB5, DB fusion (human ORFeome clone) (from UniProt O75023 1-590)”?
Answer: binding [1]: binds; binding [2]: binds

Question: What does the source list for “LILRB3, DB fusion (human ORFeome clone) (from UniProt O75022 1-631)”?
Answer: binding [1]: binds; binding [2]: binds

Question: With “Ece1-V, synthetic peptide (from UniProt Q07730 127-160)” as the substance, how does the binding [7] read?
Answer: binds
